Assay results as given in patent US8207144B2, “Sodium salt of disaccharide compound, production method and use of same” (Eisai R & D Management Co., Ltd., priority 2006, dated 2012).
Some of these results come from one statement about several compounds together.

Assay: Storage stability test (formation of impurities A, B and C by HPLC)
Assay type: physicochemical
Settings: FIGS. 1 and 2; versus Comparative Example 1
Description: Consequently, formation rates (converted to monthly rates) were calculated for each of the three types of decomposition products (impurities A, B and C) using the area percent.

Row | SMILES | impurity formation rates (comparison in words)
1 | CCCCCC/C=C\CCCCCCCCCC(=O)N[C@H]1[C@H](OC[C@H]2O[C@H](OP(=O)([O-])[O-])[C@H](NC(=O)CC(=O)CCCCCCCCCCC)[C@@H](OCCCCCCCCCC)[C@@H]2O)O[C@H](COC)[C@@H](OP(=O)([O-])[O-])[C@@H]1OCC[C@@H](CCCCCCC)OC.[Na+].[Na+].[Na+].[Na+] [Example 3] | lower than that of Comparative Example 1
2 | CCCCCC/C=C\CCCCCCCCCC(=O)N[C@H]1[C@H](OC[C@H]2O[C@H](OP(=O)([O-])[O-])[C@H](NC(=O)CC(=O)CCCCCCCCCCC)[C@@H](OCCCCCCCCCC)[C@@H]2O)O[C@H](COC)[C@@H](OP(=O)([O-])[O-])[C@@H]1OCC[C@@H](CCCCCCC)OC.[Na+].[Na+].[Na+].[Na+] [Example 4] | lower than that of Comparative Example 1
3 | CCCCCC/C=C\CCCCCCCCCC(=O)N[C@H]1[C@H](OC[C@H]2O[C@H](OP(=O)(O)O)[C@H](NC(=O)CC(=O)CCCCCCCCCCC)[C@@H](OCCCCCCCCCC)[C@@H]2O)O[C@H](COC)[C@@H](OP(=O)(O)O)[C@@H]1OCC[C@@H](CCCCCCC)OC [Example 2] | lower than that of Comparative Example 1
